This note sets out measurements from article PMC9554091.

By UniProt entry, the sequences of proteins in these tests, tags left out.
UniProt Q05397: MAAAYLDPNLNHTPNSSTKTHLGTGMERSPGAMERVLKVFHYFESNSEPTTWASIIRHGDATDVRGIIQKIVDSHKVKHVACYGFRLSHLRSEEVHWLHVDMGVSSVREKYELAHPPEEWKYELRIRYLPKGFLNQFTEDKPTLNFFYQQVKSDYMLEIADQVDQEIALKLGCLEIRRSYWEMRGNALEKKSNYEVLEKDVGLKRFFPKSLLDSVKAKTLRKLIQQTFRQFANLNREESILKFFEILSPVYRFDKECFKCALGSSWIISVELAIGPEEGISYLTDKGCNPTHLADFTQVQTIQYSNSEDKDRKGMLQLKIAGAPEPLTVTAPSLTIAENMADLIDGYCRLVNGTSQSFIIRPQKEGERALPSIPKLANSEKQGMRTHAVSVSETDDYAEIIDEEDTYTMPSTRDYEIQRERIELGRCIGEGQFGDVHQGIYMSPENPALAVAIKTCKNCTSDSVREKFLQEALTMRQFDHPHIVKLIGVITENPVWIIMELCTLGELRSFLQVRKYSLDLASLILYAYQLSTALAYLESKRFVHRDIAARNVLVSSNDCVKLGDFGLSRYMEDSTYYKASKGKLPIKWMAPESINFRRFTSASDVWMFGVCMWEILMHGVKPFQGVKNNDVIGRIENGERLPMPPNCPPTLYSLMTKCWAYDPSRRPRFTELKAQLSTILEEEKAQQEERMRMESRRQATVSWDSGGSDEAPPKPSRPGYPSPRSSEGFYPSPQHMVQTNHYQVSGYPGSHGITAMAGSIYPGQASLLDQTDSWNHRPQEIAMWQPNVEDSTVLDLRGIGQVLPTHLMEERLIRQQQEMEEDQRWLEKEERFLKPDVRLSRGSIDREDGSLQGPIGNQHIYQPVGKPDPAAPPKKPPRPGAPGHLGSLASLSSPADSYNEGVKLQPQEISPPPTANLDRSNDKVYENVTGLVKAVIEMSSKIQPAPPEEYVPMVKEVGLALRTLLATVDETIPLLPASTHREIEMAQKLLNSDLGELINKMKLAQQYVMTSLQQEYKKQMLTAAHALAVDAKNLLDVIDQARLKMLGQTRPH
UniProt P01106: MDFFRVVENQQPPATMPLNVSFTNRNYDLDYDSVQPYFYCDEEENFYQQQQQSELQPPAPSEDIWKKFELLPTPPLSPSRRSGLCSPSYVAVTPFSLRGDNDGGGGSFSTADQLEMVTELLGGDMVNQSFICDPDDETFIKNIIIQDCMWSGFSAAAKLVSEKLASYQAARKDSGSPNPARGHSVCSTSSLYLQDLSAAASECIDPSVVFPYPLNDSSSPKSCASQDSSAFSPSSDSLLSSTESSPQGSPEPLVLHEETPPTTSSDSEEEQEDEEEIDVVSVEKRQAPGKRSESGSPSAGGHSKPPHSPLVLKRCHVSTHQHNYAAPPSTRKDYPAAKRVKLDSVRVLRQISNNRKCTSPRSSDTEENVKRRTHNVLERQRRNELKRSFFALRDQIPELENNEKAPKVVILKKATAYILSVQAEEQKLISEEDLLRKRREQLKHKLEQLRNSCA

The target in this test is focal adhesion kinase (FAK) (UniProt Q05397). Description: co-IP; co-IP of c-Myc and FAK, told only in the discussion; cells, bait and conditions not stated.

Results are given in words; binding and its absence hold for the method and conditions named. Binding seen in cells or lysates may run through a third protein.

c-Myc (from UniProt P01106 1-454): the binding entry is “no binding”.
